PubChem BioAssay AID1224828 – NIAID | 2016

Purpose: 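Knock-downs that increase or decrease LPS-induced p65 nuclear translocation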 (primary screen)
Cells: mouse RAW264.7 G9 macrophage reporter cells (GFP-p65, Tnf promoter-mCherry)
Knock-down reagent: siRNA pool against mouse genes, 100 nM
Duration: 2 days siRNA transfection, then 40 min LPS before fixation
Treatment: LPS (Salmonella minnesota R595) at 10 ng/ml
Measurement: 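Imaged p65 nuclear translocation ratio, normalised to the plate median, converted to robust z-scores and averaged across two replicates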
Direction: p65 translocation robust z-score: higher = more nuclear NF-kappaB p65 after LPS than the plate median; nuclear/cytoplasmic p65 ratio: higher = more nuclear NF-kappaB p65
Active means: 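Active if robust z is above 3.3 (negative regulators) or below -1.56, the Tlr4 control median (positive regulators); activity score 50 or more; control wells not called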
Calls: active = hit (p65 shift raised or lowered); inactive = no clear change
This is a random part of about 17,000 deposited reagents. 762 of them (4.5%) count as active. 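Active calls include both raised and lowered p65 entry, mostly lowered; wells with fewer than 50 cells lack a z-score.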 Raw values are not corrected between plates. The numbers tell different reagents against one gene apart. Reagent sequences are not shown.

The opening 3 entries, to show the layout:
| gene | pool no. | p65 translocation robust z-score | nuclear/cytoplasmic p65 ratio, rep 1 | nuclear/cytoplasmic p65 ratio, rep 2 | low cell count flag | call |
| --- | --- | --- | --- | --- | --- | --- |
| Nucks1 | 1 | -0.26 | 1.49 | 1.51 | enough cells to score | inactive |
| Pi4k2b | 1 | -1.64 | 1.38 | 1.17 | enough cells to score | active |
| Mif4gd | 1 | – | 1.4 | 1.1 | fewer than 50 cells per well; well left out of scoring | inactive |

Main list, repeating the preview:
| gene | pool no. | p65 translocation robust z-score | nuclear/cytoplasmic p65 ratio, rep 1 | nuclear/cytoplasmic p65 ratio, rep 2 | low cell count flag | call |
| --- | --- | --- | --- | --- | --- | --- |
| Nucks1 | 1 | -0.26 | 1.49 | 1.51 | enough cells to score | inactive |
| Pi4k2b | 1 | -1.64 | 1.38 | 1.17 | enough cells to score | active |
| Mif4gd | 1 | – | 1.4 | 1.1 | fewer than 50 cells per well; well left out of scoring | inactive |
| Tas2r135 | 1 | -0.83 | 1.31 | 1.55 | enough cells to score | inactive |
| Paip2 | 1 | 0.64 | 1.51 | 1.33 | enough cells to score | inactive |
| Mov10l1 | 1 | 1.1 | 2.04 | 1.69 | enough cells to score | inactive |
| Fbxl19 | 1 | 0.27 | 1.46 | 1.57 | enough cells to score | inactive |
| Dhdds | 1 | 2.16 | 2.17 | 1.58 | enough cells to score | inactive |
| Gale | 1 | 0.67 | 1.54 | 1.44 | enough cells to score | inactive |
| Cops2 | 1 | 1.35 | 1.66 | 1.55 | enough cells to score | inactive |
| Zfp696 | 1 | -0.07 | 1.42 | 1.53 | enough cells to score | inactive |
| Prtg | 1 | – | 1.54 | 1.35 | fewer than 50 cells per well; well left out of scoring | inactive |
| B4galt6 | 1 | 1.35 | 1.77 | 2.08 | enough cells to score | inactive |
| Muc5b | 1 | 0.42 | 1.84 | 1.66 | enough cells to score | inactive |
| Acta1 | 1 | 0.12 | 1.65 | 1.62 | enough cells to score | inactive |
| Pcbp1 | 1 | 0.74 | 1.46 | 1.33 | enough cells to score | inactive |
| Smarcal1 | 1 | 0.99 | 1.66 | 1.74 | enough cells to score | inactive |
| Mmp11 | 1 | 0.93 | 1.53 | 1.5 | enough cells to score | inactive |
| Egf | 1 | -0.02 | 1.44 | 1.38 | enough cells to score | inactive |
| Wdr48 | 1 | 0.41 | 1.55 | 1.53 | enough cells to score | inactive |
| Peli1 | 1 | -1.91 | 1.14 | 1.06 | enough cells to score | active |
| Guca1a | 1 | -0.24 | 1.39 | 1.35 | enough cells to score | inactive |
| Cimap1a | 1 | -0.34 | 1.6 | 1.53 | enough cells to score | inactive |
| Gm14296 | 1 | -0.92 | 1.24 | 1.2 | enough cells to score | inactive |
| Gm14296 | 2 | – | 1.05 | 1.4 | fewer than 50 cells per well; well left out of scoring | inactive |
